Experimental data published in PMC12286842.
Results are given in words; binding and its absence hold for the method and conditions named. In cells and extracts the contact can be indirect. Here binding means that the protein was enriched with, or labelled near, the bait; the list need not be complete.

Protein sequences, listed by entry. Tags and fused reporters are not part of them.
UniProt Q9P0J7: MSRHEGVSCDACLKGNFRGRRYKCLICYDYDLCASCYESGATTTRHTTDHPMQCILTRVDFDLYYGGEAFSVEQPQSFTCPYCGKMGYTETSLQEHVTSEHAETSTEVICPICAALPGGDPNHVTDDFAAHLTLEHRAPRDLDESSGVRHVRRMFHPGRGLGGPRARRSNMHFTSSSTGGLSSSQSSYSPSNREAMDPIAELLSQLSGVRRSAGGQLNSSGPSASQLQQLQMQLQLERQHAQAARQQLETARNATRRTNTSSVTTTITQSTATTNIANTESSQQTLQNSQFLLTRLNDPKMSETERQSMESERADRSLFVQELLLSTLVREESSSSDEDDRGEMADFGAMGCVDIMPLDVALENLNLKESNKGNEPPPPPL

Target: KCMF1–3×Flag (wild type) (human) (UniProt Q9P0J7)
Assay: affinity purification with mass spectrometry; anti-Flag M2 IP of KCMF1-3×Flag transfected in WT or ΔUBR4 HEK293T cells, 0.2% NP-40 lysis

B1: NIPSNAP3A (endogenous) (protein, UniProt Q9UFN0 1-247)
chain: MLVLRSALTRALASRTLAPQMCSSFATGPRQYDGIFYEFRSYYLKPSKMNEFLENFEKNAHLRTAHSELVGYWSVEFGGRMNTVFHIWKYDNFAHRTEVRKALAKDKEWQEQFLIPNLALIDKQESEITYLVPWCKLEKPPKEGVYELATFQMKPGGPALWGDAFKRAVHAHVNLGYTKLVGVFHTEYGALNRVHVLWWNESADSRAAGRHKSHEDPRVVAAVRESVNYLVSQQNMLLIPTSFSPLK
For B1, the binding was “binds”.
